{
  "source": "paper PMC11404819",
  "binders": {"B1": {"name": "NG domain of FtsY (residues 196-498) (domain or fragment, UniProt P10121 196-497)", "chain": "FARLKRSLLKTKENLGSGFISLFRGKKIDDDLFEELEEQLLIADVGVETTRKIITNLTEGASRKQLRDAEALYGLLKEEMGEILAKVDEPLNVEGKAPFVILMVGVNGVGKTTTIGKLARQFEQQGKSVMLAAGDTFRAAAVEQLQVWGQRNNIPVIAQHTGADSASVIFDAIQAAKARNIDVLIADTAGRLQNKSHLMEELKKIVRVMKKLDVEAPHEVMLTIDASTGQNAVSQAKLFHEAVGLTGITLTKLDGTAKGGVIFSVADQFGIPIRYIGVGERIEDLRPFKADDFIEALFARED"}},
  "target": "T1, C-terminal truncation of Ffh (residues 1-432) (UniProt P0AGD7)",
  "T1 sequence": "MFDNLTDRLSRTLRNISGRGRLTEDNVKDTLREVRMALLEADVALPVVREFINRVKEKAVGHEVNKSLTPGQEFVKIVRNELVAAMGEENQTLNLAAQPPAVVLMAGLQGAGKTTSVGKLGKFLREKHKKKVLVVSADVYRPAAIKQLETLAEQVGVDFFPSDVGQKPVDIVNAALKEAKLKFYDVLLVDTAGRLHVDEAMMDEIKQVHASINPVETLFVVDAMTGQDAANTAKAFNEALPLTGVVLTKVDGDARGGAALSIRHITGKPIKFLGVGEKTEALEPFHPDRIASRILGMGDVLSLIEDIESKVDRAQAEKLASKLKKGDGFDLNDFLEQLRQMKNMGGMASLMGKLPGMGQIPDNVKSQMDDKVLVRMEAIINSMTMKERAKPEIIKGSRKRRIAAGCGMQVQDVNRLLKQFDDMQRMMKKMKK",
  "assay": "native gel or EMSA; 20 nM Cy5-labelled 4.5S RNA, 200 nM Ffh incubated with the RNA for 10 min at room temperature, then 400 nM FtsYNG added; 1 mM GMP-PNP, 50 mM HEPES pH 7.5, 150 mM KCl, 1.5 mM MgCl2, 10% glycerol, 0.01% Igepal; 6% polyacrylamide gel run at 4°C; both purified",
  "note": "Results are given in words; binding and its absence hold for the method and conditions named. Some binding calls cover weakened binding; strength is not graded here.",
  "data": [
    {"binder": "B1", "values": [
      {"measurement": "binding", "result": "binds"}
    ]}
  ]
}
